Experimental data published in publication PMC6168688.
No constants are given. Whether binding was seen depends on the method and setting. Some binding calls cover weakened binding; strength is not graded here. For some assays here: Sequences can lack the tags named with a protein.

T1: AtNOC2, full length, yeast two-hybrid matrix fusion (pPC86/pPC97) (A. thaliana) (UniProt Q9ZPV5)
T1 sequence: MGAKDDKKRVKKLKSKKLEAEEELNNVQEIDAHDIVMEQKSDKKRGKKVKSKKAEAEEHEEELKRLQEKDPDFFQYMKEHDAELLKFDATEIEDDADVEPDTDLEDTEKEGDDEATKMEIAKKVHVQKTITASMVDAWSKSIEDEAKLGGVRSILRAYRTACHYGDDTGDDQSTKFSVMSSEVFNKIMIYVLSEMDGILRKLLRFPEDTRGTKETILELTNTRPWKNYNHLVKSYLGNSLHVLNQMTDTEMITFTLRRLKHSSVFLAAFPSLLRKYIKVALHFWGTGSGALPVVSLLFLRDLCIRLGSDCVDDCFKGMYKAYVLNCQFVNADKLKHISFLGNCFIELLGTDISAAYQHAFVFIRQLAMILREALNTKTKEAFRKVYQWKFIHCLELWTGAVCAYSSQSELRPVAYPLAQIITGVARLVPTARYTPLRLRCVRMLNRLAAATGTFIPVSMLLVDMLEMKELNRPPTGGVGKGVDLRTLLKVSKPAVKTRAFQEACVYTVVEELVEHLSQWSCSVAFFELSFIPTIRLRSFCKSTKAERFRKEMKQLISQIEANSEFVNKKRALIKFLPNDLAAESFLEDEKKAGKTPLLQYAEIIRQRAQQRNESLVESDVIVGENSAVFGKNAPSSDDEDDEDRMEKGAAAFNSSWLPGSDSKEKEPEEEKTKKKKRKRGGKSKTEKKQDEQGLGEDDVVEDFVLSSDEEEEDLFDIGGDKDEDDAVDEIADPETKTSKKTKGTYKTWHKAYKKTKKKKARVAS

T2: REBELOTE (RBL), full length, yeast two-hybrid matrix fusion (pPC86/pPC97) (A. thaliana) (UniProt Q0WVH0)
T2 sequence: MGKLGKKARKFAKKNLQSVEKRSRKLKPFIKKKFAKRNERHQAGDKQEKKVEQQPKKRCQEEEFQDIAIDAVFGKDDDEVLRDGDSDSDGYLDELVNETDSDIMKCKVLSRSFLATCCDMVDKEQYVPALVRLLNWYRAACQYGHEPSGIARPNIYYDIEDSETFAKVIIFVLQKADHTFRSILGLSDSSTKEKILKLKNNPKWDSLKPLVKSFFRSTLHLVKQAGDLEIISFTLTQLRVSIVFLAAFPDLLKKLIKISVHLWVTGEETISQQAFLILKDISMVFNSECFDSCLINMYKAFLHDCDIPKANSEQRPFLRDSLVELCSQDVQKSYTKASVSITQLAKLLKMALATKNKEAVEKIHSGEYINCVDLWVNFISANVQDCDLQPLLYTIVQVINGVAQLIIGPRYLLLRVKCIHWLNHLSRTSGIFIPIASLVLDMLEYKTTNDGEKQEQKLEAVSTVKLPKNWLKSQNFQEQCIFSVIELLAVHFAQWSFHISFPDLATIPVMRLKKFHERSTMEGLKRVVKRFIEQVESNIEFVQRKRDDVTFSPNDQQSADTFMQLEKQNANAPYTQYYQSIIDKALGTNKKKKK

T3: REBELOTE (RBL), full length, bait in pAS2.1 (A. thaliana) (UniProt Q0WVH0)
T3 sequence: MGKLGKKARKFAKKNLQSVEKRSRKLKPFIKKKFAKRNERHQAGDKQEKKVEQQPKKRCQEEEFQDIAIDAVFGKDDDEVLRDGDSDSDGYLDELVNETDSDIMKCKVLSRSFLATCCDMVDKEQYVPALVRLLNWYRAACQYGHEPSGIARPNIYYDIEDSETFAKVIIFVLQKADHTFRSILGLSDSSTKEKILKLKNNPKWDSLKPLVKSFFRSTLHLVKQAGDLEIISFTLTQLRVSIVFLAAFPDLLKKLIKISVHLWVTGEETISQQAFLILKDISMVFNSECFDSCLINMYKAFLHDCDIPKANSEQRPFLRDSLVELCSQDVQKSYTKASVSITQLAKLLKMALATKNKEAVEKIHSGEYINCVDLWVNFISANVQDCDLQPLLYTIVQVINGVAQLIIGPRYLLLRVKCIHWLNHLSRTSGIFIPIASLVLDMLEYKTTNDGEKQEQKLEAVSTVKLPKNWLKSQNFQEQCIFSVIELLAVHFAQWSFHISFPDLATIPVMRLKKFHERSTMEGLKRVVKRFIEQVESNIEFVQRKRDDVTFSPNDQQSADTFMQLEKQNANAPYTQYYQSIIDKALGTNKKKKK


Legend:
[1] = biological target: T1, AtNOC2, full length, yeast two-hybrid matrix fusion (pPC86/pPC97) (A. thaliana); test: two-hybrid; A. thaliana NOC proteins tested two by two, in both directions, pPC86- and pPC97-based vectors; growth on SD-HTL selective media (10-3 dilution)
[2] = biological target: T2, REBELOTE (RBL), full length, yeast two-hybrid matrix fusion (pPC86/pPC97) (A. thaliana); test: as above
[3] = biological target: T3, REBELOTE (RBL), full length, bait in pAS2.1 (A. thaliana); test: two-hybrid; direct test by mating: AH109 with pADGAL4-2.1 full-length cDNAs of interactors, Y187 with pAS2.1-RBL; SD-AHTL selective media
[4] = biological target: T2, REBELOTE (RBL), full length, yeast two-hybrid matrix fusion (pPC86/pPC97) (A. thaliana); test: two-hybrid; A. thaliana NOC proteins tested two by two, in both directions, pPC86- and pPC97-based vectors; growth on SD-AHTL high selective media (10-3 dilution)
[5] = biological target: HsCEBP/Z, GAL4 fusion protein (pGBKT7-GW / pACT2-GW) (human) (UniProt Q03701); test: two-hybrid; mammalian NOC proteins, GAL4 fusions in pGBKT7-GW and pACT2-GW, interaction matrix on SD-HTL selective medium (10^-3 dilution)

| Binder | binding [1] | binding [2] | binding [3] | further results |
| --- | --- | --- | --- | --- |
| OBERON1 (OBE1), full-length cDNA in pADGAL4-2.1 (protein, UniProt Q9S736 1-566) MGTSSGSNLPHQMLPPRQQLQTSLSLVSSDPHLSRSNSGIVRESPAESASSQETWPTSKSIMGRKTDSGKTGPDSHDQHVIRHVSIADKVSLRDIARERLDIVAERMHRLPEEYLEELKNGLKAILEGNGAQPIDEFMFLQKFVQTRSDLTSKTLVRAHRVQLEVLVVINTGIQAFLHPNINLSQSSLIEIFVYKRCRNIACQNELPADGCPCEICANRKGFCNLCMCVICNKFDFAVNTCRWIGCDVCSHWTHTDCAIRDGEISMGVSPKSVSGMGEMLFKCRACNHTSELLGWVKDVFQHCAPNWDRESLMKELDFVSRIFRGSEDTRGRKLFWKCEELMEKIKGGLAEATAAKLILMFFQEIELDSPKSLESGEGGGTIAPQDACNRIAEVVKETLRKMEIVGEEKTRMYKKARMGLEECEREVEEKAKQVAELQMERQKKKQQIEEVERIVRLKQAEAEMFQLKANEAKVEAERLERIVKAKKEKTEEEYASNYLKLRLSEAEAEKEYLFEKIKEQESGGNGGEASQAVMYSKIREMLHGYNASSPRVDPRSNQRNPFRSNP |  |  | binds |  |
| AtNOC3, full length, yeast two-hybrid matrix fusion (pPC86/pPC97) (protein, UniProt F4IDJ0 1-830) MGKNRRKQKVIPPPLLPPDVAEEDIEFSDEDLKYVKENTDYAQFVSQIDTAAINKQCGGRVMTVEDKYEEERSKRKTLQEEKGNGEILVDPVDVLPVKTLDGKLHYRTESKKSKLAEAETDEAEKDVLEDEHVLNKSQRREKAKKSKREAKKHEKDLPDEILQEEEETPQAAVLAEVKEELSAEESFENKKNKIAELGMLLLSDPEANIKTLKDMLDICKDQNTKIVKLALLSLLAVFKDIIPGYRIRLPTEKELEMKISKEVKKTRFYESTLLKAYKSYLQKLIIFEKQSVYNQIANRCLCTLLEAVPHFNYRDNLLIAVVRNISSPDEVVRRLCCSTIRYLFSNEGKHGGELTVQAVRLIADHVKAHNCQLHPNAIEVFMSIRFDEDIGKPNKEDEHNKKYKKNNKRKTQEEQNQVQENERKKSKKDMMSKIRDEVSADHRGVTYEPDAKERRKMQTETLSAVFETYFRILRNTMYTIGERTEEIPTSNPGAFGSHPLLAPCLDGLAKFTQQLDLDYMGDLMNYLKKLASSSSSVSNNTKQKNSKLLTVSERLRCCLVAFKVMRSNLNALNVDLQDFFVQLYNLILEYRPGRDSGVILAESLKIMLCDDRHQDMQKAAAFVKRLATFALCFGCAESMSALVTLKTLLQKNVKCRNLLENDAGGGSVSGSIAKYQPYATDPNLSGALATVLWELSLLSKHYHPAISTMATTVSNMNTSQSQTFLSAVTPQQAFADFSLVKESFEPKNESRKLNNKRKRESLPEEAKNVPEIDMVKLSKKLKENFTILRDIKEDERVRMELLQSEEKKPLKKQNNVVKKKLKNPKSKKQI | binds | binds |  | binding [4]: binds |
| HsCEBP/Z, GAL4 fusion protein (pGBKT7-GW / pACT2-GW) (protein, UniProt Q03701 1-1054) MAAVKEPLEFHAKRPWRPEEAVEDPDEEDEDNTSEAENGFSLEEVLRLGGTKQDYLMLATLDENEEVIDGGKKGAIDDLQQGELEAFIQNLNLAKYTKASLVEEDEPAEKENSSKKEVKIPKINNKNTAESQRTSVNKVKNKNRPEPHSDENGSTTPKVKKDKQNIFEFFERQTLLLRPGGKWYDLEYSNEYSLKPQPQDVVSKYKTLAQKLYQHEINLFKSKTNSQKGASSTWMKAIVSSGTLGDRMAAMILLIQDDAVHTLQFVETLVNLVKKKGSKQQCLMALDTFKELLITDLLPDNRKLRIFSQRPFDKLEQLSSGNKDSRDRRLILWYFEHQLKHLVAEFVQVLETLSHDTLVTTKTRALTVAHELLCNKPEEEKALLVQVVNKLGDPQNRIATKASHLLETLLCKHPNMKGVVSGEVERLLFRSNISSKAQYYAICFLNQMALSHEESELANKLITVYFCFFRTCVKKKDVESKMLSALLTGVNRAYPYSQTGDDKVREQIDTLFKVLHIVNFNTSVQALMLLFQVMNSQQTISDRYYTALYRKMLDPGLMTCSKQAMFLNLVYKSLKADIVLRRVKAFVKRLLQVTCQQMPPFICGALYLVSEILKAKPGLRSQLDDHPESDDEENFIDANDDEDMEKFTDADKETEIVKKLETEETVPETDVETKKPEVASWVHFDNLKGGKQLNKYDPFSRNPLFCGAENTSLWELKKLSVHFHPSVALFAKTILQGNYIQYSGDPLQDFTLMRFLDRFVYRNPKPHKGKENTDSVVMQPKRKHFIKDIRHLPVNSKEFLAKEESQIPVDEVFFHRYYKKVAVKEKQKRDADEESIEDVDDEEFEELIDTFEDDNCFSSGKDDMDFAGNVKKRTKGAKDNTLDEDSEGSDDELGNLDDDEVSLGSMDDEEFAEVDEDGGTFMDVLDDESESVPELEVHSKVSTKKSKRKGTDDFDFAGSFQGPRKKKRNLNDSSLFVSAEEFGHLLDENMGSKFDNIGMNAMANKDNASLKQLRWEAERDDWLHNRDAKSIIKKKKHFKKKRIKTTQKTKKQRK |  |  |  | binding [5]: binds |

The next lines start with results.

| binding [1] | binding [2] | binding [3] | Binder | further results |
| --- | --- | --- | --- | --- |
| binds | binds |  | SLOW WALKER 2 (SWA2), full length, yeast two-hybrid matrix fusion (pPC86/pPC97) (protein, UniProt F4IDC2 1-1043) MSKIKPLSKSSQDLSLLTSDIASFASSIGLASALPSSGFNDTDFRKPAKSKTQKRKKPKKDQQHKDEDEEGEPKSNIGNEKGKDFGARKQNKDAPVKQTLQPKPKPGFLSIDDESTGYKKKRFDEFKSLPKLPLVKASLLSSEWYNDAAEFEEKVFGGRKVAVANKEDFKGVVEKKRELGERLMWQYAEDFATSKGKGGDMKMVISAQKSGTVADKITAFEIMVGENPIANMRSLDALLGMVTSKVGKRFAFKGLKALSEILIRLLPDRKLKSLLQRPLNIIPENKDGYSLLLFWYWEDCLKQRYERFVTALDESSKDMLPELKDKALKTIYFMLTSKSEQERKLLVSLVNKLGDPQNKSASNADYHLTNLLADHPNMKAVVIDEVDSFLFRPHLGLRAKYHAVNFLSQIRLSHKGEDPKVAKRLIDVYFALFKVLTTEANRKQGADDKGAADKKKSNPKDTKQEVSTDSPIELDSRILSALLTGVNRAFPYVSTDEADDIIESQTPVLFKLVHSANFNVGVQSLMLLDKISSKNKIVSDRFYRALYSKLLLPSAMNSSKAEMFIGLLLRAMKNDINIKRVAAFSKRVLQVALQQPPQYACGCLFLLSEVLKSRPPLWKMVVQRESVEEEEDIEHFEDVIEGDDVDPNKKAENDENVVEVDHDGVEKSSRDGDSSSDDEEALAIRLSDEEDDNASDDSEELIRNETPQLEEVMEVSNDMEKRSQPPMRPSSLPGGYDPRHREPSYCNADRASWWELGVLSKHAHPSVATMAGTLLSGTNIVYNGNPLNDLSLTAFLDKFMEKKPKQNTWHGGSQIEPSKKLDMSNRVIGAEILSLAEGDVAPEDLVFHKFYVNKMTSTKQSKKKKKKKLPEEEAAEELYDVNDGDGGENYDSDVEFEAGDESDNEEIENMLDDVDDNAVEEEGGEYDYDDLDGVAGEDDEELVADVSDAEMDTDMDMDLIDDEDDNNVDDDGTGDGGDDDSDGDDGRSKKKKKEKRKRKSPFASLEEYKHLIDQDEKEDSKTKRKATSEPTKKKKKKKSKASE |  |
|  |  | binds | VFP3/ENAP1 (VirF-interacting Protein 3/EIN2 nuclear associated protein 1), full-length cDNA in pADGAL4-2.1 (protein, UniProt Q8VZI9 1-249) METTPETQSKTHRLPAGREDWWSEDATATLIEAWGDRYVNLNRGNLRQNDWKEVADAVNSSHGNGRPKTDVQCKNRIDTLKKKYKTEKAKPLSNWCFFDRLDFLIGPVMKKSSGAVVKSALMNPNLNPTGSKSTGSSLDDDDDDDDDDEEDDDDAGDWGFVVRKHRKVEDVDSSEGSAFRELARSILKLGEAFERIEGKKQQMMIELEKQRMEVAKELELQRMNMLMEMQLELEKSKLGKRRAASGKKL |  |
